Results deposited as PubChem BioAssay AID504774 (Drosophila RNAi Screening Center, 2011).
In all, the deposit lists about 23,000 reagents; shown is an unselected part of those that have a named target and a result. 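Values are quantile-normalised luminescence on an arbitrary scale; higher means more cells surviving MMS.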 The numbers tell different reagents against one gene apart. Names joined by + are all predicted targets of the reagent. Further read-outs or replicates are left out here.

Purpose: 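Fly genes whose loss alters survival after alkylation damage to DNA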 (primary screen)
System: Drosophila Kc167 cells
Knock-down reagent: long dsRNA against Drosophila genes, about 0.25 µg dsRNA per well
Timing: about 6 days: 3 days knock-down, then 3 days with or without MMS
Challenge: methyl methanesulphonate 0.004% (w/v) for 3 days after knock-down
Measurement: 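Viability in wells given MMS, read as ATP luminescence, normalised by quantiles plate by plate and averaged across replicates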
Scale: mean viability with MMS and viability with MMS: higher = more surviving cells after MMS

After knock-down of S6kII, the record shows mean viability with MMS 3.63e6; viability with MMS, replicate 1 = 4.10e6.
For bin the deposit lists mean viability with MMS 3.48e6; viability with MMS, replicate 1 = 3.96e6.
ATPsyndelta gave mean viability with MMS 3.52e6; viability with MMS, replicate 1 = 3.87e6.
After knock-down of CG15207 (retired record) #1 the results were mean viability with MMS 3.66e6; viability with MMS, replicate 1 = 4.19e6.
CG15207 (retired record) #2 scored mean viability with MMS 3.49e6; viability with MMS, replicate 1 = 3.95e6.
After knock-down of Pal1 + Pdrg1 the results were mean viability with MMS 3.48e6; viability with MMS, replicate 1 = 4.03e6.
After knock-down of Fpgs2, the screen gave mean viability with MMS 3.68e6; viability with MMS, replicate 1 = 4.21e6.
Against fkh, the values are mean viability with MMS 3.72e6; viability with MMS, replicate 1 = 4.37e6.

2 entries from above, limited to “viability with MMS, replicate 1”:
S6kII: 4.10e6
bin: 3.96e6

Further entries follow.
Mst33A showed mean viability with MMS 3.50e6; viability with MMS, replicate 1 = 4.04e6.
Silencing of Ntmt gave: mean viability with MMS 3.43e6; viability with MMS, replicate 1 = 3.86e6.
Pmvk gave mean viability with MMS 3.51e6; viability with MMS, replicate 1 = 3.94e6.
Silencing of CG1090 #1 came out at: mean viability with MMS 3.58e6; viability with MMS, replicate 1 = 4.04e6.
CG1090 #2 gave mean viability with MMS 3.81e6; viability with MMS, replicate 1 = 4.29e6.
With knock-down of CG12460 (retired record), the record shows mean viability with MMS 3.63e6; viability with MMS, replicate 1 = 4.08e6.
With knock-down of INPP5E the results were mean viability with MMS 3.51e6; viability with MMS, replicate 1 = 3.88e6.
Depletion of CG3842 came out at: mean viability with MMS 3.65e6; viability with MMS, replicate 1 = 3.98e6.
Knock-down of CG1092 came out at: mean viability with MMS 3.58e6; viability with MMS, replicate 1 = 4.05e6.
Cdc6 showed mean viability with MMS 3.54e6; viability with MMS, replicate 1 = 3.98e6.
Ugt36F1 gave mean viability with MMS 3.63e6; viability with MMS, replicate 1 = 4.09e6.
For mnb #1, the values are mean viability with MMS 3.28e6; viability with MMS, replicate 1 = 3.69e6.
mnb #2 scored mean viability with MMS 3.40e6; viability with MMS, replicate 1 = 3.89e6.
Against mnb #3, the values are mean viability with MMS 2.60e6; viability with MMS, replicate 1 = 2.57e6.
CG13627 gave mean viability with MMS 3.52e6; viability with MMS, replicate 1 = 4.00e6.
Against MME1 the deposit lists mean viability with MMS 3.41e6; viability with MMS, replicate 1 = 3.80e6.
